Source: paper PMC7083938

Chains of the proteins cited; added tags and fusions are not shown. Lines headed by an entry give the natural chain unless they say otherwise; changes in a name come on top. Residues count along the entry.
UniProt Q96MS0: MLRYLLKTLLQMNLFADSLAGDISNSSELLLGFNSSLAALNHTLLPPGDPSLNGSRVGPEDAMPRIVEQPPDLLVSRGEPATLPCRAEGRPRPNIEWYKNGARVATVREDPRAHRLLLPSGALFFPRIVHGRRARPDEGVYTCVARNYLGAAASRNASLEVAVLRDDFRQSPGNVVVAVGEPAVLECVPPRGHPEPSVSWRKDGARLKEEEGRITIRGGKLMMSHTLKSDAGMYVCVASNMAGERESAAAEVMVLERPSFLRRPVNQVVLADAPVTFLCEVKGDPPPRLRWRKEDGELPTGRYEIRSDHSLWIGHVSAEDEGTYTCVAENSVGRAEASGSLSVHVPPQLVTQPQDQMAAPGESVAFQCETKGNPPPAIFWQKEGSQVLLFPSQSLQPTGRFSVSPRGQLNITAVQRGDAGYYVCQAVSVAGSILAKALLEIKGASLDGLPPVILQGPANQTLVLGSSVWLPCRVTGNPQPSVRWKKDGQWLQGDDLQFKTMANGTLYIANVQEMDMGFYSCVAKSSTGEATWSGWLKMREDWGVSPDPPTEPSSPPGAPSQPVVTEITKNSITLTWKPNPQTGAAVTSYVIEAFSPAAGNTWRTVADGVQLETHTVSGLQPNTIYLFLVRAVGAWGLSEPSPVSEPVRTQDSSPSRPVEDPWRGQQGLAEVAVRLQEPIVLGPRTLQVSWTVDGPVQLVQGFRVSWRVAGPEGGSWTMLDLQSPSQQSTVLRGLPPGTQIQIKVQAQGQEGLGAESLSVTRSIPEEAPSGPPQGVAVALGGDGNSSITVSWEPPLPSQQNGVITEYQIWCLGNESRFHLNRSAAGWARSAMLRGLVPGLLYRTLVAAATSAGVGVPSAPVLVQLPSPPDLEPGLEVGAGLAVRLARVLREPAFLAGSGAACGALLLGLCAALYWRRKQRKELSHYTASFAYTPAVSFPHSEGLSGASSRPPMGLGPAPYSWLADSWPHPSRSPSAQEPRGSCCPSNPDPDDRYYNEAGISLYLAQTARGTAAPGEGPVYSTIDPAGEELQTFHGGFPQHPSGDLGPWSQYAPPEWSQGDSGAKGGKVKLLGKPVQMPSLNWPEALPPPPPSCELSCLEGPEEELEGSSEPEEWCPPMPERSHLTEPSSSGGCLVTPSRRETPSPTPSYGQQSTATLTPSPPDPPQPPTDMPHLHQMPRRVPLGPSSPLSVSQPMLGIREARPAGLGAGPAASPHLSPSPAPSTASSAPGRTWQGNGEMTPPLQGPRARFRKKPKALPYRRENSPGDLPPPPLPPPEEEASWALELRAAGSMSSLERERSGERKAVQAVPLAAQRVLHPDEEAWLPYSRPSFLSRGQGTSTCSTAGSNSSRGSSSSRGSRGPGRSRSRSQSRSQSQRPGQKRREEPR
UniProt Q99435, residues 397-638: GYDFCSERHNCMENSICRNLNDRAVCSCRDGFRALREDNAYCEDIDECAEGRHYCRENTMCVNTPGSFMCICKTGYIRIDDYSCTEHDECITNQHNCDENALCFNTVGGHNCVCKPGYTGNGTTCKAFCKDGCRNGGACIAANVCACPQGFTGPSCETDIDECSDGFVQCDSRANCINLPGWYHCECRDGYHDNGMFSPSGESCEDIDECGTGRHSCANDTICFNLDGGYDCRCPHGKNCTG
UniProt Q61220: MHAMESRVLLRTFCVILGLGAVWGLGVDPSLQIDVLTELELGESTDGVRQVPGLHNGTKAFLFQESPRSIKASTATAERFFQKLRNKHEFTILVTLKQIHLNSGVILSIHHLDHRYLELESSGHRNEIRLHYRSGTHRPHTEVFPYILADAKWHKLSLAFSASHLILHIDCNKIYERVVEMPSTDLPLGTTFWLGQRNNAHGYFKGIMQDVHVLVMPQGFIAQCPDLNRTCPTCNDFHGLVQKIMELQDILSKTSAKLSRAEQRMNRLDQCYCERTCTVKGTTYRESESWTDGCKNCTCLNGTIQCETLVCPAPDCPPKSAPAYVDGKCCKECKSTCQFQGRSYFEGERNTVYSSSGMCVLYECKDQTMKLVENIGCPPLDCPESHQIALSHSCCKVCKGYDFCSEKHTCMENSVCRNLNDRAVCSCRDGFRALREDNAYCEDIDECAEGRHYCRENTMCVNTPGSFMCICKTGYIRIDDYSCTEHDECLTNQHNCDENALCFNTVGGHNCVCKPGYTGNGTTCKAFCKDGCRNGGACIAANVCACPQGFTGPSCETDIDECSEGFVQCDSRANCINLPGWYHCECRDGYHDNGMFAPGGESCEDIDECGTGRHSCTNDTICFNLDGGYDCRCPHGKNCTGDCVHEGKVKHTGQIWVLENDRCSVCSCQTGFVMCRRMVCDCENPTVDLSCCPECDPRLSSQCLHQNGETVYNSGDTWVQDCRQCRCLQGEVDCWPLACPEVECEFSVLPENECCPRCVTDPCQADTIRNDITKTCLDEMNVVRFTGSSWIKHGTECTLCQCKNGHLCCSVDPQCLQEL

How the values were obtained:
[1] = target: human Robo3 FN domains 1-3 (human) (UniProt Q96MS0); test: SEC; purified proteins and mixed complex samples (1:1 molar for hNELL2 EGF1–6 + hRobo3 FN1–3 on Superdex 200 Increase 10/300), HBS (10 mM HEPES pH 7.2, 150 mM NaCl); both purified
[2] = target: T1, mouse Robo3 ectodomain (mouse) (UniProt Q9Z2I4); test: SAXS; SEC-coupled SAXS, Superose 6 Increase 10/300 in HBS, APS beamline 18 (Bio-CAT); samples injected at 10–30 µM (hRobo3 ectodomain, hNELL2) or ~1 mg protein; molecular weight by the Vc method; both purified
T1 sequence (chain, biotin (NHS-Biotin) where captured on the SA chip for SPR): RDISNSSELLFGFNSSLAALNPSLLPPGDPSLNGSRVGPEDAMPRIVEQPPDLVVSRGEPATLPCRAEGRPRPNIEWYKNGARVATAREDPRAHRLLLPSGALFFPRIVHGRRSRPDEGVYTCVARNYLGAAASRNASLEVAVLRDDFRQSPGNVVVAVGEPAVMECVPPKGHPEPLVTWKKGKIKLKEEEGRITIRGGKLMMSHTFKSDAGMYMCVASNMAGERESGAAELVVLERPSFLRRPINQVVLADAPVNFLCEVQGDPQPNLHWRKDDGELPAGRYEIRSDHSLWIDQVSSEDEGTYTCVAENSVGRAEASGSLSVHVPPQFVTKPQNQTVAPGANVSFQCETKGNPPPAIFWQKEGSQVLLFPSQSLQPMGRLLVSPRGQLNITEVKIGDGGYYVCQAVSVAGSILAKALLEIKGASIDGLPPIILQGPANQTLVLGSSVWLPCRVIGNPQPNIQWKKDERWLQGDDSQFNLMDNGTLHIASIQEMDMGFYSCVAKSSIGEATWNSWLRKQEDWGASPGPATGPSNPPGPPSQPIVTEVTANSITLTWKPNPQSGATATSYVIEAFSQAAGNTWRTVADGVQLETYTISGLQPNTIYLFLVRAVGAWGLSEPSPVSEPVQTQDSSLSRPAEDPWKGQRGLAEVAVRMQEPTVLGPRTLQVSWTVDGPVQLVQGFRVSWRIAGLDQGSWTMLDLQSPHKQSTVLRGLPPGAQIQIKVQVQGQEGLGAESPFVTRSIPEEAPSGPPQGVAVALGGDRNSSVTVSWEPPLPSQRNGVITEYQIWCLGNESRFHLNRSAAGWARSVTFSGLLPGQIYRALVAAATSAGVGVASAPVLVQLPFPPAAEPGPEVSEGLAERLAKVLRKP

human NELL2 EGF domains 1-6 (from UniProt Q99435 397-638) (domain or fragment)
binding [1]: binds

mouse NELL2 EGF1–6, wild type (from UniProt Q61220) (domain or fragment)
binding [2]: binds

No constants are given. Whether binding was seen depends on the method and setting. A result given as binding can be weak or reduced; the word gives no strength.
